Test results published in patent US20030232057A1, “Method and composition for inducing tolerance to an antigenic material” (priority 2000, published 2003).
At least one compound was matched to its structure with a doubt left.

Tested on: anti-BLG IgE
Experiment: Measurement of specific anti-BLG IgE antibody in serum by ELISA
Format: in vivo, Balb/c mice
Conditions: 26 days post-tolerization; whey vs non-tolerized mice (p<0.05), drugs vs whey proteins fed mice
Experimental: To start the experiment the mice were forced fed and/or injected i.p. with butyrate (which promotes COX-2 activity), ibuprofen (which inhibits COX activity) or saline (control) daily from day −3 to day 4. On day 0, the mice were fed by gastric feeding whey proteins (3 mg/g of body weight) or same volume of saline water. Gavage products were dissolved in 0.3 ml of saline water. At day 4 of each experiment, all mice were immunized by intraperitoneal injection of 0.08 mg of BLG as well as 0.08 mg of OVA in 0.04 ml sterile saline mixed with 0.16 ml 2% Al(OH)3 (Superfos Biosecotr A/S, Denmark). […] (^3H)Tdr (Amersham, Zurich) was added for the final 6 hours of culture and the plates were harvested and analyzed by scintillation counting (TopCount, Canberra Packard, Zurich). […] Stimulation indices were calculated as the ratio of blank-subtracted test and control values at 2.5 mg BLG/mL and 50 μg PHA/mL. […] Optical densities were measured at 492 nm, after 15 mn of incubation at room temperature, using a Dynatech MR500 ELISA reader (Dynatech, Embrach-Embraport, Switzerland. Pooled samples from twenty non immunized female mice were used as negative controls in each plate. The cut-off dilutions were determined by calculating the dilution of the samples which gave twice the absorbance of the negative controls. Titers were expressed as the log10 of the reciprocal of the cut-off dilution.

For `CCCC(=O)O` [butyrate], the “humoral anti-BLG IgE titers” value was “further decreased”.
